These are yes or no findings as the source states them, for the method shown. Binding seen in cells or lysates may run through a third protein. A result given as binding can be weak or reduced; the word gives no strength. Where a sequence is shown, tags or fusion partners need not be part of it. Each block holds one binder with its values, some of them ahead of it.
Biological target: ZZ-tagged Haus6 (Xenopus laevis)
Assay: co-purification

binding: binds
B1: Strep-GFP-tagged Haus8 (protein, UniProt Q0IHJ3 1-367)
chain: MSEAGVAPIEDGSQNSSGGSSGDAALKKSKGGAKVVKSRYMQIGRSKVSKNSLANTTVCSGGKVPERGSGGTPTRRSLAPHKAKITAAVPLPALDGSIFTKEDLQSTLLDGHRIARPDLDLSVINDRTLQKITPRPVVTSEQKKPKRDTTPVNLVPEDMVEMIESQTLLLTYLTIKMQKNLFRLEEKAERNLLLVNDQKDQLQETIHMMKRDLTLLQREERLRDLIEKQDEVLTPVVTSKDPFKDNYTTFATALDSTRHQLAIKNIHITGNRHRYLEELQKHLAITKSLLEEIMPSHASENAESFDTIKDLENIVLKTDEELARSFRQILDLSFKVNKEISLQSQKAVEETCESALVRQWYFDGSLP

binding: binds
B2: Strep-GFP-tagged Haus3 (protein, UniProt Q6DCY9 1-597)
chain: MSGGDRFVQTLQKLNYPKGAQLDGEDFDWLFEAVDLKPFLDWFCSAASEQNVVPDEKLQAFNTLKESGKPVLDEKALDEVLKTFSISKVPAIEEVAIEKLEEEVKALQKQKNLHIRRRNKLQMVESGNRQMCLKSKDKEEETGRAFQEVLHLLRVTNKKLNHELQSIVNGVQTLMSFFSTPETACELSSQPIFLSQLLLDKYLSLEEQSTAALTSFTKEHFFEGMSKFVEGSDENFQLVQLNVNSFGEDGTTEDKCKEMMRLQLAYICAKHKLIQMKAKSASLKVGLQWAENNASVVQDKASQKEENLKVRITSLKNETLQIENHTNSISNEKLPGLVRDNAQLLNMPIVKGDYDLQMAHQTSCSSRQDLVCDHLMKQKASFELLQLGYELELRKHRDVYRELGSIVQELKESGDKLEERLTMLSDVNLLSASKPRSNIDSKDLTSHRLYQLLDGDNTQKLFRTYDGLESVAQKLSQDIASMRDQLEVSEQEHSLLLSKLDSHLKELRDFMYPEGNTLMLTTPELSGEFHQLGSQLEKLNHITVEILGDLQLKRKMLESNKLQQIEKQLYVYFFQNEEQLKSIVGKLEAQTGGGSSA

Source: paper doi:10.1101/2022.12.23.521824
